# This is one part of the list. These are raw signals, not scaled to a control.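 First-pass screen: polymyxin B was added at a level that permeabilizes the Salmonella outer membrane while sparing the inner membrane. DMSO wells, with and without polymyxin B, defined maximum growth. Because plates differed from one another, each plate's data were ranked separately and the compounds with the lowest OD600 were carried forward as hits.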
# System: Salmonella enterica serovar Typhimurium SL1344
# Assay: bacterial growth OD600 after 18 h with compound and polymyxin B; higher = more bacterial growth (less inhibition)
# Conditions: 50 µM, Mueller-Hinton broth
Compound,bacterial growth OD600 (polymyxin B 1 µg/mL),bacterial growth OD600 (polymyxin B 0.75 µg/mL)
CCn1ccnc1CN1CCCC(CNC(=O)c2cc(OC)cc(OC)c2)C1 (stereo unspecified),0.928,
COc1ccc(OC2CCN(C3CCCC3)CC2)c(C(=O)N2CCN(C)C(=O)[C@@H]2C)c1,0.924,
O=C(CCn1nnnc1CN1CCOCC1)N1CCN(C2CCCC2)C(=O)C1,,0.786
O=C(NCCN1Cc2ccccc2OC(c2ccsc2)C1)c1cccc(N2CCNC2=O)c1 (stereo unspecified),,0.688
COc1cc(NC(=O)CCC2CCCN(C(=O)c3scnc3C)C2)cc(OC)c1 (stereo unspecified),1.04,
O=C1CCC(CCNCCOc2ccc(F)cc2)N1CCCc1ccncc1 (stereo unspecified),,0.779
Cn1nccc1C(=O)N1CCC2(CCCN(Cc3cccc(F)c3F)C2=O)C1 (stereo unspecified),0.59,
O=C(c1coc(COc2ccc(F)cc2Cl)n1)N1CCC(O)CC1,0.896,
CCOC(=O)C1(Cc2ccccc2F)CCCN(Cc2cnc(SC)nc2)C1 (stereo unspecified),0.965,
CSc1ccccc1C(=O)NCc1c(C)ncc2c1CCN(C(=O)c1ccc(OC(C)C)cc1)C2,,0.802
COCCN1CC(C(=O)NCc2cccc(C)n2)CCC1=O (stereo unspecified),0.966,
CCc1nc(CNC(=O)C2CCC(=O)N(CCN3CCOCC3)C2)cs1 (stereo unspecified),0.906,
O=C(NC1CCCc2c1cnn2-c1ccccc1F)C1=CCCC1 (stereo unspecified),1.13,
CCC(=O)N1CCC2(CC1)c1ccccc1[C@@H](NC(=O)c1ccccc1OC)[C@@H]2OC,,0.855
COCc1ccc(C(=O)Nc2ccc(-c3nc(CNC(=O)Cc4ccc(F)cc4)c(C)o3)cc2)o1,,0.846
CC1CCN(C(=O)c2coc(COc3cccc(C(F)(F)F)c3)n2)CC1,0.026,

# Already shown: an excerpt of the list.
Compound,bacterial growth OD600 (polymyxin B 1 µg/mL),bacterial growth OD600 (polymyxin B 0.75 µg/mL)
COCCN1CC(C(=O)NCc2cccc(C)n2)CCC1=O (stereo unspecified),0.966,
CCc1nc(CNC(=O)C2CCC(=O)N(CCN3CCOCC3)C2)cs1 (stereo unspecified),0.906,

# The list goes on.

Compound,bacterial growth OD600 (polymyxin B 1 µg/mL),bacterial growth OD600 (polymyxin B 0.75 µg/mL)
COc1cc(CN(C(=O)Cc2csc(-c3ccccc3)n2)[C@H]2CCCCNC2=O)ccc1OCCc1scnc1C,,0.57
CCn1c(-c2cccnc2)nc2cc(NC(=O)COC)cc(C(=O)NCCc3ccc(F)cc3)c21,,0.745
COc1ncccc1C(=O)NC1CC(=O)N(CCc2cccc(Cl)c2)C1 (stereo unspecified),0.929,
COc1ccccc1OC1CCN(C(=O)Cn2cc(NC(=O)COc3ccccc3)cn2)CC1,,0.813
Cc1nccn1-c1ccc(NC(=O)C2CCCN(Cc3ccc4nonc4c3)C2)cc1 (stereo unspecified),0.807,
CCOC(=O)C1(CC2CC2)CCN(C(=O)CCc2nc3cc(F)ccc3[nH]2)CC1,,0.669
Cc1cc(Cl)c2oc(C(=O)NCC(C)(C)N3CCOCC3)c(C)c2c1,0.968,
COc1cccc(CNC(=O)CCC2CCCN(C(=O)c3[nH]nc4c3CCCC4)C2)c1 (stereo unspecified),1.38,
CC(C)(C)CN1CCC(N2CCC(C(=O)NCc3cccnc3)CC2)CC1,1.07,
COc1ccc(OC2CCN(C(C)=O)CC2)c(C(=O)N(C)CC(O)c2ccccc2)c1 (stereo unspecified),1.26,
O=C(C1CCC1)N1CCc2onc(-c3ccc(F)c(F)c3)c2C1,,0.737
COc1ccccc1OCC(=O)N1CCC(C2(C)NC(=O)N(Cc3ccc(F)cc3)C2=O)CC1 (stereo unspecified),,0.929
Cc1oc(-c2ccccc2NS(=O)(=O)Cc2ccccc2)nc1CNC(=O)CCn1cccn1,,0.841
CCC(CC)CN1CCC(N2CCC(C(=O)NCc3cccnc3)CC2)CC1,1.26,
O=C(NCC1CCCCO1)c1coc(COc2cccc3cccnc23)n1 (stereo unspecified),0.968,

# Reference: the supplement of paper PMC12889115
